Reference: PMC6736568, “Discovery of Novel Anti-cryptosporidial Activities From Natural Products by in vitro High-Throughput Phenotypic Screening” (Frontiers in Microbiology, 2019)

System: HCT-8 host cells (Hs18S)

Cl.NCCC[C@H](N)C(=O)O [ORNITHINE HYDROCHLORIDE]
Hs18S ΔCT: -0.07 | Cytotoxicity (%) (10 µM): -5.2
